No constants are given. Whether binding was seen depends on the method and setting. Some binding calls cover weakened binding; strength is not graded here.

Protein sequences, listed by entry. Tags and fused reporters are not part of them. Residues count along the entry.
UniProt P24055, residues 33-292: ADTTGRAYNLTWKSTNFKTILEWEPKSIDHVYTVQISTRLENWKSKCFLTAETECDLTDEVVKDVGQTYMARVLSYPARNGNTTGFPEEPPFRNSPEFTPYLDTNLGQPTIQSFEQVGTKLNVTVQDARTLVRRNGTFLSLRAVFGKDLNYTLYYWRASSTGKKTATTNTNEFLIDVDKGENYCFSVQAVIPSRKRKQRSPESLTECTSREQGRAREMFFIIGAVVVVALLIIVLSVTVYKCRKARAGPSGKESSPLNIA
UniProt P08709, residues 61-466: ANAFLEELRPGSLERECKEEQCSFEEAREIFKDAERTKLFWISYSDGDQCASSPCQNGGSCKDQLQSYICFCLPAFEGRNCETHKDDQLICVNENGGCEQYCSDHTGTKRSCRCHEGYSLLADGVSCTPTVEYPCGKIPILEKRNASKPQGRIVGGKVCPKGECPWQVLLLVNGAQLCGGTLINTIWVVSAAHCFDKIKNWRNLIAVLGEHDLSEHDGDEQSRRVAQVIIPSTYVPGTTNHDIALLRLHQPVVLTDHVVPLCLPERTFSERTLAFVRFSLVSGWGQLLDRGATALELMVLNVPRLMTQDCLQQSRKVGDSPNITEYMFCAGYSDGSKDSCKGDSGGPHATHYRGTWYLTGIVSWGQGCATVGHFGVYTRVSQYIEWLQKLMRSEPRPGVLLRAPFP

The target of the experiment is Lipidated rabbit tissue factor (rTF; American Diagnostica, Product #4520L) (rabbit) (UniProt P24055). Put plainly: SPR, Biacore.

Turning to “Human FVIIa; Lot # A09050525 (Fitzgerald) (from UniProt P08709 61-466) (enzyme)”, the binding entry is listed as “binds”.

Source of the values: US20180355030A1.
